For assay [1], the target named is NP1 PTX (pentraxin domain of neuronal pentraxin 1) (human) (UniProt Q15818). Briefly: SEC; SEC profiles of the purified NP constructs (Fig. S2); Superdex 200, 10 mM Hepes-NaOH pH 7.4, 150 mM NaCl, 4 °C; both purified.
The target of assay [2] is T1, NP2 PTX (pentraxin domain of neuronal pentraxin 2) (human) (UniProt P47972).
T1 sequence: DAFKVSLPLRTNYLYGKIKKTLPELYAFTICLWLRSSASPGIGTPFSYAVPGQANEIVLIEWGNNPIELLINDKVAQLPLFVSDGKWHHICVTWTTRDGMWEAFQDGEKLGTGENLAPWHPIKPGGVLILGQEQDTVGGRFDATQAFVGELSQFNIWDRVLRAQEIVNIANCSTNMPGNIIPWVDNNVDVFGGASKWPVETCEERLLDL
The description is as above.

For assay [3], the target named is T1, NP2 PTX (pentraxin domain of neuronal pentraxin 2) (human). Briefly: mass photometry; Two^MP, 200 nM NP, 10 mM Hepes-NaOH pH 7.4, 150 mM NaCl, without CaCl2, 25 °C; both purified.
Assay [4] has the same target. Briefly: mass photometry; Two^MP, 200 nM NP, 10 mM Hepes-NaOH pH 7.4, 150 mM NaCl, with 3 mM CaCl2, 25 °C; both purified.
In assay [5] the target is NPR PTX (pentraxin domain of neuronal pentraxin receptor) (human) (UniProt O95502). As to the kind of experiment: SEC; SEC profiles of the purified NP constructs (Fig. S2); Superdex 200, 10 mM Hepes-NaOH pH 7.4, 150 mM NaCl, 4 °C; both purified.

No constants are given. Whether binding was seen depends on the method and setting.

B1: NP1 PTX (pentraxin domain of neuronal pentraxin 1) (domain or fragment, UniProt Q15818 226-428)
chain: DKFQLTFPLRTNYMYAKVKKSLPEMYAFTVCMWLKSSATPGVGTPFSYAVPGQANELVLIEWGNNPMEILINDKVAKLPFVINDGKWHHICVTWTTRDGVWEAYQDGTQGGSGENLAPYHPIKPQGVLVLGQEQDTLGGGFDATQAFVGELAHFNIWDRKLTPGEVYNLATCSTKALSGNVIAWAESHIEIYGGATKWTFEAC
For the molecule B1, the binding entry in assay [1] is “no binding”.

B2: NP2 PTX (pentraxin domain of neuronal pentraxin 2) (domain or fragment, human)
chain: T1 sequence
notes: neuronal pentraxin 2 (NP2, Nptx2), human, pentraxin (PTX) domain; also called NP2 PTX WT; PTX domain of NP2; source: Expi293 cells, secreted, purified (Ni-NTA, SEC)
B2: the binding result in assay [2] is “no binding”; in assay [3] it was “no binding (tested: 200 nM)”; in assay [4], “no binding (tested: 200 nM)”.

B3: NPR PTX (pentraxin domain of neuronal pentraxin receptor) (domain or fragment, UniProt O95502 292-494)
chain: DAFKISIPIRNNYMYARVRKALPELYAFTACMWLRSRSSGTGQGTPFSYSVPGQANEIVLLEAGHEPMELLINDKVAQLPLSLKDNGWHHICIAWTTRDGLWSAYQDGELQGSGENLAAWHPIKPHGILILGQEQDTLGGRFDATQAFVGDIAQFNLWDHALTPAQVLGIANCTAPLLGNVLPWEDKLVEAFGGATKAAFDVC
As for B3, in assay [5], the binding entry is “no binding”.

Source of the values: article PMC12799932, “Development of a VHH that inhibits the binding of neuronal pentraxin 2 to a postsynaptic glutamate receptor, AMPAR” (The Journal of Biological Chemistry, 2025).
